Data source: PubChem BioAssay AID686943 (Drosophila RNAi Screening Center, 2013)

Aim: 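Search across the genome for regulators of signalling from receptor tyrosine kinase to ERK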 (primary screen)
System: Drosophila S2R+ haemocyte-like cells expressing YFP-tagged ERK (Rolled)
Reagents: long dsRNA against Drosophila genes
Challenge: insulin stimulation versus unstimulated cells; dose and duration not given
Measured: 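Antibody staining for doubly phosphorylated ERK divided by ERK-YFP signal, as plate z-scores, in insulin-treated and untreated cells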
Direction: replicate 1, z-score of dpERK with insulin and replicate 2, z-score of dpERK with insulin: higher = more active ERK per ERK-YFP after insulin
The screen tested about 23,000 reagents; below is a random part of those with a known target gene and a result. 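Extra replicates exist only for a retested subset of genes; insulin dose and duration not given; both raised and lowered dpERK matter.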 Reagents against one gene are numbered here. Not all columns of the deposit are shown. Not given: the amount of reagent, the time to read-out.

{"target": "CG18731", "reagent no.": 1, "replicate 1, z-score of dpERK with insulin": -0.25, "replicate 2, z-score of dpERK with insulin": 2.62}
{"target": "RpL32 (Ribosomal protein L32)", "reagent no.": 1, "replicate 1, z-score of dpERK with insulin": 1.51, "replicate 2, z-score of dpERK with insulin": 0.26}
{"target": "Sarm (Sterile alpha and Armadillo motif)", "reagent no.": 1, "replicate 1, z-score of dpERK with insulin": -0.75, "replicate 2, z-score of dpERK with insulin": -0.16}
{"target": "Sarm (Sterile alpha and Armadillo motif)", "reagent no.": 2, "replicate 1, z-score of dpERK with insulin": -0.34, "replicate 2, z-score of dpERK with insulin": -0.18}
{"target": "Sarm (Sterile alpha and Armadillo motif)", "reagent no.": 3, "replicate 1, z-score of dpERK with insulin": 0.41, "replicate 2, z-score of dpERK with insulin": 0.07}
{"target": "Sarm (Sterile alpha and Armadillo motif)", "reagent no.": 4, "replicate 1, z-score of dpERK with insulin": -0.55, "replicate 2, z-score of dpERK with insulin": -0.24}
{"target": "Sarm (Sterile alpha and Armadillo motif)", "reagent no.": 5, "replicate 1, z-score of dpERK with insulin": 1.41, "replicate 2, z-score of dpERK with insulin": 1.15}
{"target": "Sarm (Sterile alpha and Armadillo motif)", "reagent no.": 6, "replicate 1, z-score of dpERK with insulin": -0.43, "replicate 2, z-score of dpERK with insulin": -0.48}
{"target": "CG6833", "reagent no.": 1, "replicate 1, z-score of dpERK with insulin": -0.05, "replicate 2, z-score of dpERK with insulin": -0.41}
{"target": "CG8586", "reagent no.": 1, "replicate 1, z-score of dpERK with insulin": -0.06, "replicate 2, z-score of dpERK with insulin": -0.17}
{"target": "Acp63F (Accessory gland protein 63F)", "reagent no.": 1, "replicate 1, z-score of dpERK with insulin": 0.14, "replicate 2, z-score of dpERK with insulin": 0.39}
{"target": "CG10527", "reagent no.": 1, "replicate 1, z-score of dpERK with insulin": -0.04, "replicate 2, z-score of dpERK with insulin": -0.32}
{"target": "Muc18B (Mucin 18B)", "reagent no.": 1, "replicate 1, z-score of dpERK with insulin": 0.75, "replicate 2, z-score of dpERK with insulin": 0.63}
{"target": "Muc18B (Mucin 18B)", "reagent no.": 2, "replicate 1, z-score of dpERK with insulin": -0.63, "replicate 2, z-score of dpERK with insulin": 0.32}
{"target": "PGS1 (Phosphatidylglycerophosphate synthase 1)", "reagent no.": 1, "replicate 1, z-score of dpERK with insulin": 0.75, "replicate 2, z-score of dpERK with insulin": 0}
{"target": "CG6414", "reagent no.": 1, "replicate 1, z-score of dpERK with insulin": 0.24, "replicate 2, z-score of dpERK with insulin": 0.65}
{"target": "Ugt36E1 (UDP-glycosyltransferase family 36 member E1)", "reagent no.": 1, "replicate 1, z-score of dpERK with insulin": 0.73, "replicate 2, z-score of dpERK with insulin": -0.06}
{"target": "CCAP (Crustacean cardioactive peptide)", "reagent no.": 1, "replicate 1, z-score of dpERK with insulin": -0.17, "replicate 2, z-score of dpERK with insulin": 0}
{"target": "TotC (Turandot C)", "reagent no.": 1, "replicate 1, z-score of dpERK with insulin": 0.61, "replicate 2, z-score of dpERK with insulin": 0.12}
{"target": "CG9522", "reagent no.": 1, "replicate 1, z-score of dpERK with insulin": -0.77, "replicate 2, z-score of dpERK with insulin": 0.56}
{"target": "Rel (Relish)", "reagent no.": 1, "replicate 1, z-score of dpERK with insulin": 0.84, "replicate 2, z-score of dpERK with insulin": 1.61}
{"target": "Sas-6 (Spindle assembly abnormal 6)", "reagent no.": 1, "replicate 1, z-score of dpERK with insulin": -0.24, "replicate 2, z-score of dpERK with insulin": -0.11}
{"target": "CG3436", "reagent no.": 1, "replicate 1, z-score of dpERK with insulin": -1.28, "replicate 2, z-score of dpERK with insulin": 0.03}
{"target": "CG14440", "reagent no.": 1, "replicate 1, z-score of dpERK with insulin": -2.85, "replicate 2, z-score of dpERK with insulin": -2.61}
{"target": "LysS (Lysozyme S)", "reagent no.": 1, "replicate 1, z-score of dpERK with insulin": 0.03, "replicate 2, z-score of dpERK with insulin": 0.66}
{"target": "CG2794", "reagent no.": 1, "replicate 1, z-score of dpERK with insulin": -0.32, "replicate 2, z-score of dpERK with insulin": -0.57}
{"target": "LManI (Lysosomal alpha-mannosidase I)", "reagent no.": 1, "replicate 1, z-score of dpERK with insulin": 0.85, "replicate 2, z-score of dpERK with insulin": 0.28}
{"target": "tbrd-3", "reagent no.": 1, "replicate 1, z-score of dpERK with insulin": -0.25, "replicate 2, z-score of dpERK with insulin": 1.1}
{"target": "okr (okra)", "reagent no.": 1, "replicate 1, z-score of dpERK with insulin": -0.23, "replicate 2, z-score of dpERK with insulin": -0.24}
{"target": "tn (retired record)", "reagent no.": 1, "replicate 1, z-score of dpERK with insulin": -0.33, "replicate 2, z-score of dpERK with insulin": -0.24}
{"target": "tn (retired record)", "reagent no.": 2, "replicate 1, z-score of dpERK with insulin": -0.26, "replicate 2, z-score of dpERK with insulin": 0.75}
